In the supplement of paper PMC3334620:
Over roughly 33,000 sequences, “E-score (-0.5 to 0.5)” has its median near -0.0034; the highest 2% begin near 0.25. This is one part of the list.

Target: T1, Yap3 (UniProt P38749)
T1 sequence: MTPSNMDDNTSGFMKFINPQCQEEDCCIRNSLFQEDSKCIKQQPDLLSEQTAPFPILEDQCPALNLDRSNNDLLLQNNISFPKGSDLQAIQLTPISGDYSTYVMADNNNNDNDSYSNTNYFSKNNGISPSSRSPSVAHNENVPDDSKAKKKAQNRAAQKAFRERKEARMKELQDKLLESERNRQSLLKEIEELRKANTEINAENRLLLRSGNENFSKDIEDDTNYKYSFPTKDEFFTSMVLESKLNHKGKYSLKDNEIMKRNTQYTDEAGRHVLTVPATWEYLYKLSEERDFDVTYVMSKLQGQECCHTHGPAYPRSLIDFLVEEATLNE
Experiment: PBM E-score (8-mer binding enrichment) (E-score (-0.5 to 0.5)); higher = stronger / more preferred TF binding
Conditions: protein concentration: 100 nM; construct: GST-full length
Experimental: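 Universal 'all 10-mer' protein binding microarrays (Agilent AMADID 015681) probed with GST-tagged S. cerevisiae TFs (full-length or DBD) made by in vitro transcription/translation (PURExpress), about 100-200 nM. Bound TF was detected with fluorescent anti-GST. Each ungapped 8-mer (which stands for itself and its reverse complement) is scored by the PBM enrichment score (E-score), a modified Wilcoxon-Mann-Whitney statistic from -0.5 to +0.5, computed with the Universal PBM Analysis Suite. Scale: above 0.35 generally sequence-specific binding.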

Sequence	PBM E-score
ACCCTTTA	0.101
GAGGGCAC	-0.262
CCATTACA	0.272
CGGAGCCA	-0.131
ATTATAAG	0.0886
GCTTAGGA	0.0143
ACATACAG	0.129
AATGGTAG	0.0426
GTCGCTGA	-0.0498
GACCACAA	-0.108
CCAATTAC	0.274
CATCAAGG	-0.128
GTACTAAC	0.136
CCGAAAAC	-0.0348
AAGACTGA	0.0261
GAGACTAC	-0.101
ACCTACAG	-0.0362
CTCCGTGA	-0.0971
ATGTTTCG	0.25
CGTGGTAA	-0.0407
CCACCTGG	-0.32
ATTTGTGC	0.0412

Sequence	PBM E-score
ATCCACCG	0.0749
CCCTTGAA	-0.0355
TAAGGAGA	-0.0697
ACCGCTAT	-0.0612
ATACTTGA	-0.138
AGAGATAG	0.0415
GCCGGGCA	-0.245
AGACCGCG	-0.0512
ACTCGTAG	-0.0754
TCTAAGAA	0.188
ACAATTAC	0.203
GCCAGCGC	-0.205
AACCCCTA	-0.201
CAGACTGC	0.00328
GTGAATGA	0.0535
ACTTTGGG	-0.115
AAGGTACG	0.0472
GCAATGCA	-0.00493
AGAGCCTG	-0.104
AGCCGATC	0.0299
CAGATACC	-0.0445
CCTATCAG	-0.0853

4 entries from above, reformatted.
GAGGGCAC
  PBM E-score: -0.262
AATGGTAG
  PBM E-score: 0.0426
CTCCGTGA
  PBM E-score: -0.0971
ATGTTTCG
  PBM E-score: 0.25

More records

Sequence	PBM E-score
ATCAACGG	0.182
AGTCAGAC	0.0445
GAAAATGC	0.0109
ACTGGTTG	0.0576
CTAAAACA	0.148
AGACTCAA	-0.15
CATTAGAG	0.00896
CTTAGAAC	0.0408
CCTCGGTC	-0.129
AATGAATG	0.24
GGGGCGGA	-0.229
TACACTCA	0.109
ACCCACCA	-0.0969
CATCCGGA	-0.125
ATGTCGAA	0.0205
CATACACA	0.0332
AATTAAAA	0.177
ACGTTTAC	0.0268
ATTCCCGA	0.0393
CGAATGGA	0.105
TGTTTTAA	0.208
CATTACAC	0.205

Sequence	PBM E-score
GGTTCTAA	0.218
CGATATGC	0.0243
GTCCACCA	-0.18
GCGTGAGC	0.109
CAGTTTGG	-0.105
CCTCTTTC	-0.129
CTCTAGTA	-0.0476
AATTCTTC	0.0549
ACCACGAT	0.136
GCTCGTGA	-0.0796
AGTAGTCC	-0.0537
AAGTGGCG	0.157
CTGAAGGA	-0.168
CATTCTGG	-0.153
CTCTAACA	0.0178
AAAGGTTA	0.151
ACCGCCGC	-0.0309
ATTAGCAA	0.223
AAAAGCAG	0.0262
GGTGATAC	-0.0272
TATCGTAA	0.182
ACCGCGTC	0.0345

Sequence	PBM E-score
GCGAAACC	0.165
ACGGGTAA	0.00851
CAGCTTGG	0.0808
GCATGGCA	-0.00214
CACCGCAC	-0.163
CCGAGAGC	-0.214
CTAACCTC	-0.0994
GAGGCCCC	-0.356
AGGCCCAT	-0.224
AAAGGAAC	0.122
GCGCCCAA	-0.0804
TCTATAGA	-0.23
CTGCGTAC	-0.181
CTGGCACC	-0.221
CCCAAGCC	-0.221
AATCGATT	0.179
CAGCCACA	-0.00717
GGGGGCGA	-0.29
CATGAACG	-0.134
AGTCTCAC	-0.0421
ACGGGAGC	-0.0922
CACAGCAG	-0.211
